This note sets out measurements from USRE42274E1 (Eli Lilly and Company, priority 2007, dated 2011).

This series is described as follows: general procedure: Fmoc solid-phase peptide synthesis; Rink amide resin for C-terminal amides; [3-({ethyl-Fmoc-amino}-methyl)-indol-1-yl]-acetyl AM resin for C-terminal ethyl; DCC/HOBt or HBTU/DIEA (FastMoc). As to conditions: late stage modification step; for final HPLC purity: analytical HPLC and mass spectral analysis.

Consider “cyclo[Phe-Tyr-Lys(iPr)-DArg-2Nal-Gly-DGlu]-Lys (iPr)-NHEt”, for which the “final HPLC purity” value is listed as 99.16%.

In the case of “cyclo[Phe-Tyr-Lys(iPr-d6)-DArg-2Nal-Gly-DGlu]-Lys(iPr-d6)-NH2”, the “final HPLC purity” value came to 99.9%.

For the substance “cyclo[Phe-Tyr-Lys(iPr)-DArg-2Nal-Gly-DGlu]-Lys(iPr)-NH2”, the “final HPLC purity” value runs as follows: (run 1) 97.5%; (run 2) 96.5%. For the setting “recovery yield”, the step yield is given as 90% or higher.
